Experimental data: article PMC12040169 (PLOS Biology, 2025)
Some of the results follow.

Each molecule was assayed on T1, CTL2-GFP (C. trachomatis L2/434/Bu, GFP-expressing). Settings: bulk GFP, single well; 28.5 h, 10 µM; inhibitor.
T1 construct: L2/434/Bu, GFP-expressing
Set-up: species or system HeLa; Intracellular C. trachomatis growth in HeLa cells, bulk GFP fluorescence relative to DMSO

Compound | % of control remaining [%]
Cc1oc(CSc2nnc(NCc3ccc(F)cc3)s2)cc1C(=O)O [CBK296629] | 128.442
Cc1cc(NC(=O)NC2CC3(CCN(C)CC3)Oc3ccccc32)no1 (stereo not shown) [CBK305059] | 137.012
O=C(CN(c1ccccc1)S(=O)(=O)c1ccc(F)cc1)Nc1ccc(Cl)c(Cl)c1 [CBK268740] | 140.921
Cc1nc2c(c(=O)[nH]1)CCN(C(=O)c1cc3c(s1)CCC3)C2 [CBK283751] | 74.7094
CC(=O)N1CCC2(C/C=C/C[C@H]3CN(CCCc4ccccc4)CC[C@H]3NC(=O)CNC2=O)CC1 [CBK292140] | 123.001
COc1ccc2[nH]c3c(c2c1)CCN(C(=O)CNCc1ccc(OC)c(OC)c1)C31CCN(CCOc2ccccc2)C1 (stereo not shown) [CBK076736T] | 94.2239
O=C(/C=C/c1cn(-c2ccccc2)nc1-c1cc2ccccc2oc1=O)NCc1ccccc1 [CBK266530] | 120.485
CSc1sc(NC(=O)Nc2cccc(C(F)(F)F)c2)cc1C#N [CBK017114] | 75.1433
Cc1cn(C2CC(O)C(CN=[N+]=[N-])O2)c(=O)[nH]c1=O (stereo not shown) [CBK201256] | 89.9802
Cc1n[nH]c(O)c1C(c1ccc(OC(=O)c2ccccc2Cl)cc1)c1c(C)n[nH]c1O [CBK264520] | 123.599
O=C(Oc1cccc2cccnc12)c1cc(S(=O)(=O)N2CCOCC2)ccc1Cl [CBK263210] | 113.888
CC(=O)c1c(-c2ccc(C)cc2)nc2n(CCN3CCCCC3)c3ccccc3n12 [CBK278231C] | 100
CCN(CC)CC(=O)Nc1sc2c(c1C#N)CCCC2 [CBK261646] | 100
CCn1cc(CN2CCC(O)(c3ccc(C)cc3)CC2)c(C)n1 [CBK282955] | 141.088
Cc1c(-c2cc(C(=O)NC(C)C3CC4CCC3C4)no2)cnn1C (stereo not shown) [CBK281653] | 127.165
CNCC1CCN(C(=O)c2ccc(Oc3cccnc3)cc2)C1 (stereo not shown) [CBK304697] | 131.826
COCCNC(=O)c1cc(C2CC2)nc2c1cnn2C(C)C [CBK306099] | 114.882
O=C(NC1CCCCC1)O[C@@H]1CO[C@H]2[C@@H]1OC[C@@H]2Nc1nccc(-c2cccs2)n1 [CBK289514] | 110.678
O=C1CN(c2cccc(C(F)(F)F)c2)C(=O)N1c1ccc(Cl)cc1 [CBK122769] | 100.164
C=CCN1C(=O)CC2(C1=O)C(=O)N(C)c1ccc(OC)cc12 (stereo not shown) [CBK075158] | 99.3452
O=C(O)CCSc1nc(-c2ccccc2)c(-c2ccccc2)n1-c1ccccc1 [CBK264837] | 80.0409
Cc1ccc(NC(=O)CSc2nnc(C(O)c3ccccc3)n2-c2ccccc2)c(C)c1 (stereo not shown) [CBK266072] | 135.769
CC(=O)NCC1CCC2(CCN(c3nc(C)nc(C)c3C)CC2)O1 (stereo not shown) [CBK307404] | 133.793
CN(C)CCNc1c(N)c(=O)oc2ccccc12 [CBK261472] | 116.091
CCNC(=O)N(C)C1CCN(c2ncnc3ccccc23)CC1 [CBK305537] | 114.42
CSc1ccccc1C(=O)N1CCN(S(=O)(=O)c2sc(C(=O)O)c(C)c2C(=O)O)CC1 [CBK297149] | 137.566
CCOC(=O)CCCCNC(O)C(Cl)(Cl)Cl (stereo not shown) [CBK261003C] | 103.06

Compound | % of control remaining [%]
O=C(O)CCC(=O)Nc1ccc2c(c1)oc1ccccc12 [CBK261597] | 118.345
C[C@@H](Nc1cncc(-c2ccncc2)n1)c1ccccc1 [CBK066055] | 155.43
O=C(Cc1ccccc1[N+](=O)[O-])NNC(=S)Nc1ccc(F)c(Cl)c1 [CBK266904] | 124.491
C[C@@H](Nc1cncc(-c2cccc3ccccc23)n1)c1ccccc1 [CBK065646] | 144.522
C[C@@H](Cn1nc(-c2cccs2)oc1=O)NC(=O)C1CCCC1 [CBK284337] | 139.79
CC(C)[C@H](CO)Nc1nccnc1-c1ccc(C(=O)N2CCOCC2)cc1 [CBK037012] | 174.937
Cc1ccc(S(=O)(=O)n2nncc2C)cc1 [CBK001921] | 106.672
C[C@@H](Nc1cncc(-c2ccc3c(c2)OCO3)n1)c1ccccc1 [CBK065954] | 93.1002
CC(=O)Nc1cccc(C(=O)N(Cc2ccccn2)CC2CCCO2)c1 (stereo not shown) [CBK306867] | 158.422
CN(C)CCN(C)c1nc(-c2cc(C(F)(F)F)cc(C(F)(F)F)c2)cn2ccnc12 [CBK037971] | 150.368
COc1ccc([C@@]23CC[C@@H](CNC(=O)c4ccc(C(F)(F)F)cc4)C[C@@H]2N(C)CC3)cc1OC [CBK042195] | 120.69
O=C(Cc1ccccn1)NC(Cc1ccsc1)c1nccs1 (stereo not shown) [CBK282821] | 121.429
CC(=O)C(C)Oc1ncn(-c2ccccc2)n1 (stereo not shown) [CBK008377] | 136.796
CN1CCN(CCC(=O)Nc2cccc(Cl)c2)CC1 [CBK070793C] | 111.633
O=C(Cn1nc(-c2cc3c(s2)CCC3)oc1=O)N1CCCC1 [CBK284712] | 129.505
Cc1cc(C)c(C)c(S(=O)(=O)Nc2ccc(O)c(Sc3nc[nH]n3)c2)c1C [CBK267012] | 179.16
Cc1ccc2oc(C(=O)N(CCO)CCc3ccncc3)c(C)c2c1 [CBK281642] | 116.923
Cc1cc(C)cc(Nc2c(-c3ccc(C(=O)O)cc3)nc3cnccn23)c1 [CBK287166] | 133.548
Cc1cccc(OCC(=O)NCC(c2cccs2)N2CCOCC2)c1 (stereo not shown) [CBK305426] | 122.9
Cc1ccc(NC(=O)c2ccc3ccccc3n2)c(C)n1 [CBK200293] | 183.515
CC(NC(=O)COc1ccc(Br)cc1)C(=O)O (stereo not shown) [CBK262083] | 102.762
O=C1NCC2(CCN(C(=O)C3CCCC3)CC2)Oc2ccccc21 [CBK282920] | 114.382
O=C1NC(=O)C(CC(=O)N2CCC3(CCN(C(=O)Cc4c[nH]c5ccccc45)C3)C2)N1 (stereo not shown) [CBK131436] | 111.191
C=Cn1cc(CN2CCN(C3CCCCC3)C(=O)C2)c(C)n1 [CBK282561] | 122.374
Cn1c(=O)n(CC(N)=O)c(=O)c2c1nc1oc(C(C)(C)C)cn12 [CBK306081] | 99.5911
CC(c1ccc(F)c(F)c1)N(C)C(=O)Cn1ncn(C)c1=O (stereo not shown) [CBK305083] | 124.878
Cc1ccc(S(=O)(=O)N(C)c2c(C)ccc(S(=O)(=O)N(C)CCO)c2C)cc1 [CBK264970] | 116.666

Already shown: 3 of the compounds above.
Compound | % of control remaining [%]
CC(NC(=O)COc1ccc(Br)cc1)C(=O)O (stereo not shown) [CBK262083] | 102.762
O=C1NCC2(CCN(C(=O)C3CCCC3)CC2)Oc2ccccc21 [CBK282920] | 114.382
O=C1NC(=O)C(CC(=O)N2CCC3(CCN(C(=O)Cc4c[nH]c5ccccc45)C3)C2)N1 (stereo not shown) [CBK131436] | 111.191

Remaining list, next part

Compound | % of control remaining [%]
Cn1cc(CNCc2ccc(N3CCCC3)nc2)c(-c2cccnc2)n1 [CBK306312] | 81.8158
Cc1cc(C)nc(NC(=O)OCCc2cccnc2)c1 [CBK138234] | 98.051
O=C(Nc1cccc2ncccc12)c1ccnc(N2CCOCC2)c1 [CBK287882] | 106.516
Cc1ccc2[nH]c(/C(C#N)=C\c3cc(C)n(-c4ccc(S(N)(=O)=O)cc4)c3C)nc2c1 [CBK267611] | 132.218
CN1CCCCCC1c1nc(-c2c[nH]c3ccccc23)nn1CCO (stereo not shown) [CBK306988] | 93.1959
CC(=O)N1CCN(Cc2c(C(F)(F)F)[nH]c3ncc(C)cc23)CC1 [CBK284768] | 135.85
COC(=O)CNC(=O)CNS(=O)(=O)c1ccc(C(C)=O)cc1 [CBK044117] | 85.5882
CC(=O)N1C2CCC1CC(O)(Cn1ccc3ccnc(Cl)c31)C2 (stereo not shown) [CBK284868] | 101.503
Cc1ccc(NC(=O)c2nccc3ccccc23)c(C)n1 [CBK200294] | 175.502
O=C(CN1C(=O)c2ccncc2C1=O)Nc1ccccn1 [CBK288624] | 121.108
Cc1nc2ccccc2n1CC(=O)N(CCC#N)Cc1ccco1 [CBK306323] | 139.324
Cc1ccc(F)c(OC2(C(=O)O)CCN(Cc3cnc(C)nc3)CC2)c1 [CBK306860] | 125.32
NC(=O)c1ccccc1NC(=O)CCSc1ccc([N+](=O)[O-])cc1Cl [CBK266396] | 134.943
CCN(CC)CCn1c(NC(=O)CCC2CCNC2)nc2ccccc21 (stereo not shown) [CBK304693] | 119.962
Cc1ccc2c(c1)c(=O)cc(C(F)(F)F)n2CCNC(=O)C1CC1 [CBK284831] | 131.443
Cc1ccc(S(=O)(=O)NC(C)(C)CSc2ccccn2)cc1 [CBK266360] | 213.096
O=C(Cn1cnnn1)N1CCc2ccccc2C1 [CBK200335] | 161.142
CCN(CC)CCNC(=O)N1CCN(c2ccccc2)CC1 [CBK155202] | 78.4235
CCC(C)c1ccc(OCC(=O)Nc2ccc3[nH]c(=O)[nH]c3c2)cc1 (stereo not shown) [CBK266911] | 139.87
Cn1c(SCc2cccnc2)nnc1-c1cccs1 [CBK067706] | 137.256
O=C(Cn1cnnn1)NCc1cccnc1OCC(F)(F)F [CBK306467] | 144.432
c1ccc(OCCOc2nccnc2-c2ccc3c(c2)OCO3)cc1 [CBK106714] | 100
Nc1cc2cc(F)ccc2nc1C1CCN(C(=O)C2CC2)CC1 [CBK284657] | 138.05
O=C(O)CC/C(=N\NC(=O)c1cccnc1)c1ccccc1 [CBK261305] | 97.4465
COc1c(C)cccc1C(=O)N1CCCC(c2ccc(Nc3nc(C)cc(C)n3)cn2)C1 (stereo not shown) [CBK285989] | 73.4972
